Test results as given in publication PMC10085060 (Oncotarget, 2023).

Experiment: Drug related adverse events (CTCAE version 4.0)
[1] = drug related AE, any grade, n=35

Structure (SMILES): Nc1nc2ccc(OC(F)(F)F)cc2s1 [riluzole]
- Abdominal Pain [1]: 1
- Acute Coronary Syndrome [1]: 0
- Acute Kidney Injury [1]: 0
- Alanine Aminotransferase Increase [1]: 1
- Alkaline Phosphatase Increase [1]: 1
- Alopecia [1]: 0
- Anemia [1]: 0
- Anorexia [1]: 0
- Arthralgia [1]: 1
- Aspartate Aminotransferase Increase [1]: 2
- Ataxia [1]: 2
- Blood Bilirubin Increase [1]: 1
- Blurred vision [1]: 1
- Bullous dermatitis [1]: 0
- Cardiac troponin I increased [1]: 0
- Congestive Heart Failure [1]: 0
- Cough [1]: 1
- Depression [1]: 1
- Diarrhea [1]: 0
- Dizziness [1]: 3
- Dry Mouth [1]: 0
- Dry skin [1]: 3
- Dysarthria [1]: 1
- Dysgeusia [1]: 0
- Dyspepsia [1]: 0
- Dyspnea [1]: 1
- Edema (limbs) [1]: 1
- Fatigue [1]: 2
- Fecal Incontinence [1]: 0
- Fever [1]: 0
- Flatulence [1]: 0
- Gastrointestinal Fistula [1]: 0
- Gastroparesis [1]: 1
- Headache [1]: 0
- Hoarseness [1]: 0
- Hypercalcemia [1]: 0
- Hyperglycemia [1]: 0
- Hyperkalemia [1]: 0
- Hypertension [1]: 0
- Hypoalbuminemia [1]: 0
- Hypocalcemia [1]: 0
- Hypokalemia [1]: 0
- Hypomagnesemia [1]: 1
- Hyponatremia [1]: 0
- Hypophosphatemia [1]: 0
- Hypotension [1]: 0
- Hypothyroidism [1]: 0
- Increased blood urea nitrogen [1]: 0
- Insomnia [1]: 2
- Lipase Increase [1]: 0
- Lymphocyte Count Decrease [1]: 0
- Maculopapular Rash [1]: 0
- Mucosal infection [1]: 0
- Mucositis oral [1]: 0
- Muscle weakness [1]: 0
- Myalgia [1]: 0
- Myocardial infarction [1]: 0
- Nausea [1]: 0
- Neutrophil count decrease [1]: 0
- Oral pain [1]: 0
- Palmar-plantar erythrodysesthesia syndrome [1]: 0
- Peripheral Sense Neuropathy [1]: 1
- Platelet Count Decrease [1]: 0
- Pruritus [1]: 0
- Serum amylase increased [1]: 0
- Urinary Tract Infection [1]: 0
- Voice Alteration [1]: 0
- Vomiting [1]: 0
- Weight Loss [1]: 2
- White Blood Cell Decreased [1]: 0
- Would dehiscence [1]: 0
- Wound complication [1]: 0
- Dry skin (drug related AE, any grade, n=35, listed as R): 0
- patients with toxicities attributed to the drug (alone), number (of 35 patients): 17
